Source: patent US6399833B1, “Process for producing aryl vinyl sulfone solution and use thereof” (Sumitomo Chemical Company, Limited, priority 1998, dated 2002)

Assay: Measurement of concentration in the air over the working area during handling
Protocol: A phenyl vinyl sulfone/acetonitrile solution (concentration, 31.7% by weight; temperature, 40° C.) in a reaction vessel was drawn into another vessel by opening a bottom drawing cock of the reaction vessel. The concentration of phenyl vinyl sulfone in the air over a working area during this drawing work (an area within a distance of 100 cm from the drawing site) was measured to be 0.01 mg/m^3 at the maximum.
At room temperature, a reaction vessel was charged with 65 parts by weight of acetonitrile and then with 34.8 parts by weight of phenyl vinyl sulfone in powder form. The concentration of phenyl vinyl sulfone in the air over a working area during this charging work (an area within a distance of 100 cm from the charging site) was measured to be 0.12 mg/m^3 at the maximum. As compared with the work of handling a phenyl vinyl sulfone solution, the concentration of phenyl vinyl sulfone in the air was about 10 times as large as that one.

## C=CS(=O)(=O)c1ccccc1 [phenyl vinyl sulfone]
Charging of powder form at room temperature, within 100 cm from the charging site
  Concentration in the air over a working area (maximum): ≤ 0.12 mg/m^3
Drawing of acetonitrile solution (31.7% by weight, 40° C.), within 100 cm from the drawing site
  Concentration in the air over a working area (maximum): ≤ 0.01 mg/m^3
Powder vs solution handling
  Concentration in the air, powder handling compared with solution handling: about 10 times
